Assay results reported in the supplement of paper PMC3334620.
Over roughly 33,000 sequences, “E-score (-0.5 to 0.5)” has its median near -0.016; the highest 2% begin near 0.3. The list shows a part of the results.

Biological target: T1, Yer184c (UniProt P39961)
T1 sequence: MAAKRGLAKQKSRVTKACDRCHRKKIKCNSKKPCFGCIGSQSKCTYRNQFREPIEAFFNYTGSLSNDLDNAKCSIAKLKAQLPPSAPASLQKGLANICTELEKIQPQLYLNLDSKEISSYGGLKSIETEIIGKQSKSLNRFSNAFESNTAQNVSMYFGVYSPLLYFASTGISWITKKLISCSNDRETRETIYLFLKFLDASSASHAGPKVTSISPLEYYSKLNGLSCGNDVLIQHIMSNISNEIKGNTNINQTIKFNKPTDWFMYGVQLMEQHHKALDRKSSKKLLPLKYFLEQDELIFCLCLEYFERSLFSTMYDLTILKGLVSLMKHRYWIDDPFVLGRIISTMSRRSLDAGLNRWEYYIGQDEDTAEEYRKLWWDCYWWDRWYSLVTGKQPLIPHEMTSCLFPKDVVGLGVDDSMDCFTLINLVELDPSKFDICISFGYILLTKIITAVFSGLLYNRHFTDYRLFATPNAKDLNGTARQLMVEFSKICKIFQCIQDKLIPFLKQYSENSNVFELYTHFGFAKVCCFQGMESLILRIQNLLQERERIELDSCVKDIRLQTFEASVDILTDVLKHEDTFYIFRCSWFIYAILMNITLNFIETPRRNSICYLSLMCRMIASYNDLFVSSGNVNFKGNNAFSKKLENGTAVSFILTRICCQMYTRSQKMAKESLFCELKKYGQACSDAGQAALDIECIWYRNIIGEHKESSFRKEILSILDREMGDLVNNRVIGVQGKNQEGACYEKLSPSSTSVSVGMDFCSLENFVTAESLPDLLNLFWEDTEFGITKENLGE
Assay: PBM E-score (8-mer binding enrichment) (E-score (-0.5 to 0.5)); higher = stronger / more preferred TF binding
Conditions: protein concentration: 100 nM; construct: GST-full length
Method in brief: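 Universal all-10-mer Agilent arrays, fresh or stripped once, were converted to double-stranded form by primer extension. GST-tagged yeast transcription factors from PURExpress in vitro transcription/translation, full-length or DNA-binding domain only, were applied at about 100-200 nM and detected with fluorescent anti-GST. After masliner normalisation, the Universal PBM Analysis Suite scored each ungapped eight-base word together with its reverse complement by E-score.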

First: AAAGCAGG
Second: GCATCCCA
The “PBM E-score” value of the first is higher: -0.0309 for the first, -0.26 for the second.

First: GGTTGGTA
Second: CATGGGGG
The “PBM E-score” value of the first is higher: 0.0597 for the first, -0.317 for the second.

Compared with TGCCGGCA, GTACTCAA is lower in “PBM E-score” value: 0.431 for the first, -0.0651 for the second.

Going from ACGTGGGA to AATTCGAT, the “PBM E-score” value rises from -0.288 to 0.184.

First: AGGCTATC
Second: AGAGGTTA
The “PBM E-score” value of the first is higher: 0.0945 for the first, -0.0189 for the second.

Going from AATCACCG to AATAGGAA, the “PBM E-score” value rises from 0.106 to 0.183.

Compared with TGCCGAAA, CCGCTATA is lower in “PBM E-score” value: 0.371 for the first, -0.0173 for the second.

Going from CGATGCCC to ATTGGAGA, the “PBM E-score” value rises from -0.265 to 0.0709.

Going from CGGTGCGA to AATTGGAA, the “PBM E-score” value rises from 0.00174 to 0.11.

First: ACAACTCA
Second: CCAGACGG
The “PBM E-score” value of the first is higher: 0.104 for the first, -0.155 for the second.

Going from CAGTGTGC to ATAAGATA, the “PBM E-score” value rises from -0.293 to 0.145.

Going from AGGATGGC to ACACTCCG, the “PBM E-score” value falls from 0.0583 to -0.0224.

Going from CAGAGTGA to AACTCGAT, the “PBM E-score” value rises from -0.114 to 0.12.

Compared with AAGACCAC, CTCATTGA is higher in “PBM E-score” value: -0.189 for the first, -0.069 for the second.

Going from GTAGCCAA to CCAGAGAG, the “PBM E-score” value falls from -0.193 to -0.195.

Going from CGCTGGCC to AGTATAAG, the “PBM E-score” value rises from -0.269 to -0.00431.

Going from CGACAGTC to AGCAGCTG, the “PBM E-score” value rises from -0.182 to 0.0525.

First: CGAGAGTA
Second: AAACCGTT
The “PBM E-score” value of the first is higher: 0.243 for the first, 0.0314 for the second.

Compared with GTAGGCGA, CAACATCA is higher in “PBM E-score” value: -0.203 for the first, 0.152 for the second.

Going from TAGGTACA to CCTGCGGA, the “PBM E-score” value rises from -0.112 to 0.0888.

First: CGCTGCCA
Second: GTCTTTGA
The “PBM E-score” value of the first is lower: -0.234 for the first, -0.0188 for the second.

First: CCACGATC
Second: ACGTTTAT
The “PBM E-score” value of the first is higher: 0.109 for the first, 0.0798 for the second.

Going from AGCAGACG to CGATAACG, the “PBM E-score” value falls from -0.117 to -0.188.

Compared with ACCAAAAT, CATGCATC is higher in “PBM E-score” value: 0.0978 for the first, 0.126 for the second.

Going from ACCCCCCC to ACCCCGGC, the “PBM E-score” value rises from -0.413 to 0.0581.

Going from CTCAAGTA to GATAACGC, the “PBM E-score” value rises from -0.154 to 0.0614.

Compared with AGGCCAGC, CAGATACA is higher in “PBM E-score” value: -0.242 for the first, 0.138 for the second.

First: GAATACGA
Second: TCACATGA
The “PBM E-score” value of the first is higher: 0.118 for the first, -0.148 for the second.

Going from CACGAGTA to AACTACTG, the “PBM E-score” value rises from -0.0697 to -0.0473.

Going from GGGGACAA to ATGGATAG, the “PBM E-score” value falls from -0.0319 to -0.0469.

Compared with ATAGACAA, AGTTGCGC is lower in “PBM E-score” value: 0.0858 for the first, -0.0234 for the second.

First: CCCCTGCC
Second: AACAGGGT
The “PBM E-score” value of the first is lower: -0.291 for the first, -0.172 for the second.

First: GATGAGGA
Second: GGATTGAA
The “PBM E-score” value of the first is lower: -0.0209 for the first, 0.221 for the second.

First: AGGCGTTC
Second: GTATGAAA
The “PBM E-score” value of the first is lower: -0.172 for the first, 0.103 for the second.

First: TATAGACA
Second: ATTCGAGC
The “PBM E-score” value of the first is higher: 0.195 for the first, -0.0625 for the second.

First: GGGGGTAA
Second: AAGTTAGT
The “PBM E-score” value of the first is lower: -0.348 for the first, 0.184 for the second.

First: ACAGGGTA
Second: GGGGGGGA
The “PBM E-score” value of the first is higher: -0.16 for the first, -0.417 for the second.

First: AAGTAACG
Second: AGACAAGC
The “PBM E-score” value of the first is higher: -0.00733 for the first, -0.0657 for the second.

Compared with CTTCGGAC, TGATACCA is lower in “PBM E-score” value: 0.325 for the first, 0.0294 for the second.

First: TCGATGCA
Second: AATTGGGT
The “PBM E-score” value of the first is lower: -0.0955 for the first, 0.097 for the second.

Going from GAGAGATC to AAATCGAC, the “PBM E-score” value rises from -0.164 to 0.0368.

Compared with AAACGCTC, CGTAGCAC is higher in “PBM E-score” value: -0.0382 for the first, 0.00727 for the second.

Compared with ATCGCCCA, CTGACGTC is higher in “PBM E-score” value: -0.266 for the first, -0.0569 for the second.

First: ATGGATTA
Second: ACATGGCT
The “PBM E-score” value of the first is higher: -0.155 for the first, -0.242 for the second.

First: CCTCATAA
Second: AGTTGGTG
The “PBM E-score” value of the first is higher: 0.0128 for the first, -0.115 for the second.

Going from GCGGCGAC to ACAACCAC, the “PBM E-score” value rises from 0.117 to 0.148.

Compared with CCACCGGA, ATCATTGC is lower in “PBM E-score” value: 0.346 for the first, -0.139 for the second.

First: CCTCGCAC
Second: TCTGACCA
The “PBM E-score” value of the first is lower: -0.0957 for the first, 0.142 for the second.

Compared with AGCGCTCG, ACTCTGGG is lower in “PBM E-score” value: 0.00391 for the first, -0.149 for the second.

Compared with AGCCGGCG, ACACGACA is lower in “PBM E-score” value: 0.372 for the first, -0.00801 for the second.

Compared with TCCGTAAA, GTAGAGCA is lower in “PBM E-score” value: 0.303 for the first, -0.191 for the second.

Compared with CCCTCGGA, CAGGCCGA is lower in “PBM E-score” value: 0.237 for the first, 0.108 for the second.

Going from ACAACGAT to CGACCCAG, the “PBM E-score” value falls from 0.135 to -0.134.

Going from CTTCTCAC to GAAACGCC, the “PBM E-score” value rises from 0.0389 to 0.158.

Going from AGTTTCGG to TGCAGCAA, the “PBM E-score” value falls from 0.232 to 0.0453.

Going from CCGGGGGA to AGACAGGA, the “PBM E-score” value rises from 0.00494 to 0.129.

Going from GAGGCATC to ATCGCTGC, the “PBM E-score” value rises from -0.162 to -0.0188.

Compared with ATGCAATG, CAAGCTGA is higher in “PBM E-score” value: -0.145 for the first, 0.131 for the second.

Compared with CTTCCTTA, GATGTTGA is higher in “PBM E-score” value: -0.0823 for the first, 0.0352 for the second.

First: CCCTGTGC
Second: GGGGTTTA
The “PBM E-score” value of the first is lower: -0.228 for the first, -0.216 for the second.

First: ACCCTACT
Second: AAGGGGCA
The “PBM E-score” value of the first is higher: -0.17 for the first, -0.299 for the second.

First: AAATGGGT
Second: ATTATGGA
The “PBM E-score” value of the first is lower: 0.0714 for the first, 0.122 for the second.

Going from GCACAACC to CTGATCTC, the “PBM E-score” value rises from -0.0279 to 0.00463.

Going from CAAATCTC to CAGTTGCC, the “PBM E-score” value falls from 0.0666 to -0.0212.

Compared with CTAACATC, ACAAGGCT is lower in “PBM E-score” value: 0.0267 for the first, -0.268 for the second.

Going from TACGTCGA to CCACCGCG, the “PBM E-score” value rises from -0.0468 to 0.0962.

First: TACTCCGA
Second: CCTGTCCA
The “PBM E-score” value of the first is higher: 0.262 for the first, -0.323 for the second.

First: CCAGTGAG
Second: AATCGTCC
The “PBM E-score” value of the first is lower: -0.227 for the first, 0.0346 for the second.

Going from CTCATTCA to CATTATAC, the “PBM E-score” value rises from -0.057 to 0.0866.

First: CCAGCCTC
Second: GCGTTGGA
The “PBM E-score” value of the first is lower: -0.323 for the first, -0.101 for the second.

Compared with ATGAGCCC, GAGCCTGC is higher in “PBM E-score” value: -0.243 for the first, -0.0847 for the second.

Going from AAACGGAC to CTTAAGAA, the “PBM E-score” value rises from -0.00077 to 0.145.

First: TAAAGCCA
Second: AAGGCGCC
The “PBM E-score” value of the first is higher: 0.12 for the first, 0.0286 for the second.

Compared with CCAAGTCC, TCATGTCA is higher in “PBM E-score” value: -0.22 for the first, -0.0541 for the second.

Going from CTGGGATC to GCCCGGAA, the “PBM E-score” value rises from -0.146 to 0.359.

Going from ACGTCCTG to CAGAATAG, the “PBM E-score” value rises from -0.295 to 0.0192.

Compared with ACTACAAA, TTAGCTAA is lower in “PBM E-score” value: 0.146 for the first, 0.0769 for the second.

Going from ACCACAAG to CGGTCCGC, the “PBM E-score” value rises from -0.0787 to 0.231.

First: ACGATCCG
Second: ATTGCGTG
The “PBM E-score” value of the first is higher: 0.266 for the first, -0.0519 for the second.

Compared with GGTCGAGA, ATGTCGAG is higher in “PBM E-score” value: -0.24 for the first, -0.0552 for the second.

First: TAATCGTA
Second: CCCAAAAA
The “PBM E-score” value of the first is higher: 0.0153 for the first, -0.0971 for the second.

Compared with TCCTGAGA, AGAGGATC is lower in “PBM E-score” value: -0.11 for the first, -0.121 for the second.

First: AAGTAATA
Second: CCAAGAAC
The “PBM E-score” value of the first is lower: 0.00482 for the first, 0.0263 for the second.

Compared with AGTTCAAT, GTCCACAA is higher in “PBM E-score” value: -0.186 for the first, -0.141 for the second.

First: GCACACAC
Second: ACCTAATG
The “PBM E-score” value of the first is higher: -0.0423 for the first, -0.284 for the second.

First: CCGCCTAC
Second: CTTGCAGC
The “PBM E-score” value of the first is lower: -0.0578 for the first, -0.0242 for the second.
